The subject of this assay is L1210 leukemia ip in BDF1 mice, survival T/C. Briefly: NCI In Vivo Anticancer Drug Screen. Data for tumor model L1210 Leukemia (intraperitoneal) in B6D2F1 (BDF1) mice. To be noted: T/C endpoint: mean survival time, higher T/C = longer survival.
The mark [1] stands for this setting: dose: 400.0 mg/kg/injection, schedule: Q01DX009 (ip), vehicle: Klucel (hydroxypropylcellulose) (HPC).
[2] abbreviates: dose: 400.0 mg/kg/injection, schedule: Q04DX003 (ip), vehicle: saline with Tween-80.
Setting [3] is: dose: 50.0 mg/kg/injection, schedule: Q01DX009 (ip), vehicle: Klucel (hydroxypropylcellulose) (HPC).
The mark [4] stands for this setting: dose: 400.0 mg/kg/injection, schedule: Q04DX003 (ip), vehicle: acetone.
Setting [5] is: dose: 400.0 mg/kg/injection, schedule: Q01DX001 (ip), vehicle: saline with Tween-80.
The mark [6] stands for this setting: dose: 400.0 mg/kg/injection, schedule: Q01DX009 (ip), vehicle: saline with Tween-80.
The mark [7] stands for this setting: dose: 50.0 mg/kg/injection, schedule: Q04DX003 (ip), vehicle: saline.
[8] abbreviates: dose: 100.0 mg/kg/injection, schedule: Q04DX003 (ip), vehicle: saline.
Setting [9] is: dose: 200.0 mg/kg/injection, schedule: Q04DX003 (ip), vehicle: saline.
The mark [10] stands for this setting: dose: 400.0 mg/kg/injection, schedule: Q04DX003 (ip), vehicle: saline.
The mark [11] stands for this setting: dose: 400.0 mg/kg/injection, schedule: Q04DX003 (ip), vehicle: Klucel (hydroxypropylcellulose) (HPC).
The mark [12] stands for this setting: dose: 50.0 mg/kg/injection, schedule: Q01DX009 (ip), vehicle: saline.
The mark [13] stands for this setting: dose: 200.0 mg/kg/injection, schedule: Q01DX009 (ip), vehicle: saline.
Where [14] appears, read: dose: 400.0 mg/kg/injection, schedule: Q01DX009 (ip), vehicle: saline.

The structures appear in SMILES notation. The list is a part of this screen's results and no random one: it is rich in T/C values a quarter to a half above the control, in often repeated tests (any T/C) and in doses without a T/C. Other doses and runs of a compound stand elsewhere. T/C gives the treated animals as a percentage of the vehicle group. Some entries give survivors of the animals treated and no T/C: the source files T/C as zero there, which appears to mark a toxic dose or a test without result, not a measured value. Some doses without a T/C left all or most animals alive at the check, yet need not have been tolerated: survival well below the control is almost never listed, so the zero probably covers shortened survival too. Counts of survivors are from the toxicity check (mostly the fifth day) where no day follows; animals may have died later. Schedule codes are those of the source, read here as Q, the interval in days (D) or hours (H), X, the number of doses. Some doses were run more than once; the results are listed from low to high. For survival time, this PubChem deposit counts one and a half times the control or more as active, and values a quarter to a half above the control carry no call in these data; other NCI protocols may use other cut-offs.

As to `N#CC1CN(c2ccccc2)CC1=O` (stereo not drawn), the survivor count under setting [1] is on record as 3 of 6.
As for `CCN(CC)CCN(C(=O)C(O)(c1ccccc1)c1ccccc1)C(C)C`, the survivor count (dose: 400.0 mg/kg/injection, schedule: Q04DX002 (ip), vehicle: saline) is reported as 1 of 3.
As to `C=CCSC(C)CC` (stereo not drawn), under setting [2], the survivor count is reported as 6 of 6.
For the compound `CC(C)CCCC(C)C1CCC2C3CCC4CC(=O)CCC4(C)C3CCC12C` (stereo not drawn), under setting [3], the survivor count was 3 of 3.
On to `O=C1CCCCC1Cc1ccccc1` (stereo not drawn), for which the survivor count under setting [4] is 5 of 6.
In the case of `CCc1cccc(CC)c1N1C(=O)C=CC1=O`, the survivor count is 3 of 3 (dose: 12.5 mg/kg/injection, schedule: Q04DX002 (ip), vehicle: other); 1 of 3 (dose: 25.0 mg/kg/injection, schedule: Q04DX002 (ip), vehicle: other); 0 of 3 (dose: 50.0 mg/kg/injection, schedule: Q04DX002 (ip), vehicle: other); 0 of 3 (dose: 100.0 mg/kg/injection, schedule: Q04DX002 (ip), vehicle: other); 0 of 3 (dose: 200.0 mg/kg/injection, schedule: Q04DX002 (ip), vehicle: other); 0 of 3 (dose: 400.0 mg/kg/injection, schedule: Q04DX002 (ip), vehicle: other).
`CCCCSP(Oc1ccccc1)SCCCC`: the survivor count reads like this: (dose: 200.0 mg/kg/injection, schedule: Q01DX009 (ip), vehicle: Klucel (hydroxypropylcellulose) (HPC)) 6 of 6; under setting [1], 0 of 6.
Regarding `CCCCCCCC(=O)Nc1cc2c3c(c1)CCCN3CCC2`, the survivor count under setting [2] is 4 of 6.
For the compound `CC1CCOP(=O)(Sc2ccccc2)O1` (stereo not drawn), the survivor count runs as follows: (dose: 300.0 mg/kg/injection, schedule: Q04DX002 (ip), vehicle: Klucel (hydroxypropylcellulose) (HPC)) 1 of 3; (dose: 400.0 mg/kg/injection, schedule: Q04DX002 (ip), vehicle: Klucel (hydroxypropylcellulose) (HPC)) 0 of 3.
In the case of `O=C1C2(c3ccccc3)CCC1(c1ccccc1)C(c1ccccc1)=C2c1ccccc1`, the survivor count is given as 3 of 3 (dose: 200.0 mg/kg/injection, schedule: Q01DX001 (ip), vehicle: saline with Tween-80) and 3 of 3 under setting [5].
Turning to `N#CC(=N)C(C#N)=Nc1c(O)[nH]c2ccccc12`, the survivor count was 0 of 6 (dose: 100.0 mg/kg/injection, schedule: Q01DX009 (ip), vehicle: DMSO); 0 of 6 (dose: 200.0 mg/kg/injection, schedule: Q01DX001 (ip), vehicle: DMSO); 0 of 6 (dose: 400.0 mg/kg/injection, schedule: Q01DX001 (ip), vehicle: DMSO).
Take `CCCC(C)(C)SSC(C)(C)CCC`: the survivor count under setting [6] is recorded as 6 of 6.
For the compound `Cc1ccc2c[n+]3cc4ccccc4cc3cc2c1`, the survivor count is listed as 0 of 6 (dose: 12.5 mg/kg/injection, schedule: Q01DX009 (ip), vehicle: saline); 6 of 6 (dose: 25.0 mg/kg/injection, schedule: Q04DX003 (ip), vehicle: saline); 1 of 6 under setting [7]; 2 of 6 under setting [8]; 0 of 6 under setting [9]; 0 of 6 under setting [10].
Turning to `Cc1c(Cl)cccc1NC(=O)/C=C/C(=O)O`, under setting [6], the survivor count is on record as 0 of 6.
Turning to `O=C(O)CCSSCCC(=O)O`, the survivor count reads like this: under setting [3], 5 of 6; under setting [11], 6 of 6.
Consider `CC1(C)SC2C(NC(=O)C(C(=O)O)c3ccccc3)C(=O)N2C1C(=O)O` (stereo not drawn), for which, under setting [12], the T/C was 128 % of control.
`ClC1=C(Cl)C(Cl)(Cl)C1(Cl)Cl`: the survivor count is given as 0 of 6 (dose: 150.0 mg/kg/injection, schedule: Q01DX001 (ip), vehicle: carboxymethylcellulose (CMC)) and 0 of 6 (dose: 300.0 mg/kg/injection, schedule: Q01DX001 (ip), vehicle: carboxymethylcellulose (CMC)).
As to `NC(CCC(=O)NC(CSC(c1ccccc1)(c1ccccc1)c1ccccc1)C(=O)NCC(=O)O)C(=O)O` (stereo not drawn), under setting [13], the T/C was 137 % of control. Further, the survivor count runs as follows: (dose: 300.0 mg/kg/injection, schedule: Q01DX009 (ip), vehicle: saline) 5 of 8; under setting [14], 4 of 6.
Regarding `CC(C)=CCOc1ccc2c(c1)OCO2`, the survivor count (dose: 400.0 mg/kg/injection, schedule: Q04DX002 (ip), vehicle: saline with Tween-80) is 1 of 3.
In the case of `CC(C)(C1c2ccccc2NC(=O)c2ccccc21)[N+](=O)[O-]` (stereo not drawn), the survivor count under setting [2] was 1 of 6.
For the compound `NCCCNCCCCNCCCN`, the survivor count reads like this: (dose: 64.0 mg/kg/injection, schedule: Q01DX010 (ip), vehicle: other) 1 of 6; (dose: 128.0 mg/kg/injection, schedule: Q01DX010 (ip), vehicle: other) 0 of 6; (dose: 256.0 mg/kg/injection, schedule: Q01DX010 (ip), vehicle: other) 0 of 6; (dose: 512.0 mg/kg/injection, schedule: Q01DX010 (ip), vehicle: other) 0 of 6.
Take `COc1ccccc1OCCOCCN(C/C=C(\C)CCC=C(C)C)C/C=C(\C)CCC=C(C)C`: the survivor count under setting [11] is 4 of 6.
For `CC(C)N1CCC1C` (stereo not drawn), the survivor count runs as follows: (dose: 200.0 mg/kg/injection, schedule: Q04DX003 (ip), vehicle: acetone) 4 of 6; under setting [4], 0 of 6.
With `CCCC(/C=N/Nc1ccc([N+](=O)[O-])cc1[N+](=O)[O-])=C\c1ccccc1`, the survivor count under setting [5] is reported as 6 of 6.
Regarding `COc1ccc(C(C#N)N(C)C)cc1OC` (stereo not drawn), the survivor count by setting is: (dose: 200.0 mg/kg/injection, schedule: Q01DX001 (ip), vehicle: saline) 2 of 4; (dose: 400.0 mg/kg/injection, schedule: Q01DX001 (ip), vehicle: saline) 0 of 4.
Consider `c1ccc(C2CN3CCSC3=N2)cc1` (stereo not drawn), for which the survivor count is, setting by setting: under setting [12], 0 of 6; under setting [7], 0 of 4; (dose: 100.0 mg/kg/injection, schedule: Q01DX009 (ip), vehicle: saline) 0 of 6; under setting [8], 0 of 4; under setting [13], 0 of 6; under setting [9], 1 of 4. In addition, the survivor count is listed as 0 of 6 under setting [14] and 0 of 4 under setting [10].
Regarding `CC1CCN(C(=S)[S-])CC1.CC1CCN(C(=S)[S-])CC1.[Zn]`, the survivor count runs as follows: under setting [9], 6 of 6; under setting [10], 3 of 6.
As to `O=C(O)/C(Cl)=C(/Cl)C(Cl)=C(Cl)Cl`, the survivor count (dose: 100.0 mg/kg/injection, schedule: Q01DX009 (ip), vehicle: saline with Tween-80) is given as 4 of 6 and the survivor count (dose: 200.0 mg/kg/injection, schedule: Q01DX009 (ip), vehicle: saline with Tween-80) is on record as 0 of 6.
Regarding `C=C(Br)CNC(=O)C(C)C`, the survivor count (dose: 100.0 mg/kg/injection, schedule: Q04DX003 (ip), vehicle: saline with Tween-80) is given as 0 of 6; the survivor count (dose: 200.0 mg/kg/injection, schedule: Q04DX003 (ip), vehicle: saline with Tween-80) is listed as 0 of 6; the survivor count under setting [2] is 0 of 6.
`CCCCCCCCCCCCCCCC(=O)N(CCC)CCC`: the survivor count (dose: 400.0 mg/kg/injection, schedule: Q01DX009 (ip), vehicle: carboxymethylcellulose (CMC)) was 2 of 3 and 6 of 6.
Regarding `C=C1C(=O)OC2CC3(C)C(OC(C)=O)CC=C(C)C3C(OC(C)=O)C12` (stereo not drawn) (tested in a mixture with another compound), the survivor count (dose: 300.0 mg/kg/injection, schedule: Q01DX001 (ip), vehicle: saline) was 3 of 6.
For the compound `CC(=O)N1CCCCC1`, the survivor count is given as 2 of 4 (dose: 400.0 mg/kg/injection, schedule: Q01DX001 (ip), vehicle: carboxymethylcellulose (CMC)) and 0 of 6 under setting [14].

The values above are taken from PubChem BioAssay AID248 (DTP/NCI, 2004).
